PubChem BioAssay AID1259254 – NCATS – 2017
Assay: 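Finding genes that stop cells copying their DNA twice in one cycle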 (primary screen). Cell system: human HCT116 colorectal cancer cells. Reagents: single siRNA against human genes. Time to read-out: 3 days. Detection: 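Nuclei stained with Hoechst and imaged; cell-cycle phase assigned by DNA content; G2 share scaled per plate, non-targeting siRNA 0%, GMNN siRNA 100%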. Scale: G2 robust z-score and G2 cells, % of GMNN control: higher = more G2 cells, more excess DNA replication. Call rule: 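An siRNA counts as active if its G2 robust z-score lies at least 5 MADs above the screen median; here such calls match roughly 38% of GMNN control or more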.
The whole screen tested about 59,000 reagents; below is a part drawn at random. About 1,550 of them (2.6%) count as active. 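G2 share is only a proxy for re-replication; each gene was hit by three separate siRNAs, and active genes were retested.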 Entries without a mark were called inactive. The numbers tell different reagents against one gene apart. Further read-outs or replicates are left out here. The record does not give: the amount of reagent.

The first 9 entries, to show the layout:
no.	gene	siRNA no.	G2 robust z-score	G2 cells, % of GMNN control
1	CLDN7 (claudin 7)	1	-0.112	2.18
2	CLDN7 (claudin 7)	2	0.0172	3.09
3	CLDN7 (claudin 7)	3	0.141	3.96
4	FAM9B (family with sequence similarity 9 member B)	1	-0.578	-1.1
5	FAM9B (family with sequence similarity 9 member B)	2	0.567	6.95
6	FAM9B (family with sequence similarity 9 member B)	3	-0.276	1.03
7	STOML1 (stomatin like 1)	1	-0.688	-1.88
8	STOML1 (stomatin like 1)	2	-0.231	1.34
9	STOML1 (stomatin like 1)	3	-0.881	-3.23

Main list, from the first entry:
no.	gene	siRNA no.	G2 robust z-score	G2 cells, % of GMNN control
1	CLDN7 (claudin 7)	1	-0.112	2.18
2	CLDN7 (claudin 7)	2	0.0172	3.09
3	CLDN7 (claudin 7)	3	0.141	3.96
4	FAM9B (family with sequence similarity 9 member B)	1	-0.578	-1.1
5	FAM9B (family with sequence similarity 9 member B)	2	0.567	6.95
6	FAM9B (family with sequence similarity 9 member B)	3	-0.276	1.03
7	STOML1 (stomatin like 1)	1	-0.688	-1.88
8	STOML1 (stomatin like 1)	2	-0.231	1.34
9	STOML1 (stomatin like 1)	3	-0.881	-3.23
10	PROK2 (prokineticin 2)	1	-0.494	-0.509
11	PROK2 (prokineticin 2)	2	-0.731	-2.18
12	PROK2 (prokineticin 2)	3	2.86	23.1
13	MYO16 (myosin XVI)	1	0.0511	3.33
14	MYO16 (myosin XVI)	2	-1.16	-5.21
15	MYO16 (myosin XVI)	3	-1.08	-4.65
16	TMEM123 (transmembrane protein 123)	1	0.752	8.26
17	TMEM123 (transmembrane protein 123)	2	0.742	8.19
18	TMEM123 (transmembrane protein 123)	3	-0.472	-0.351
19	RPL13A (ribosomal protein L13a)	1	0.824	8.77
20	RPL13A (ribosomal protein L13a)	2	3.94	30.7
21	RPL13A (ribosomal protein L13a)	3	4.51	34.7
22	MRPL47 (mitochondrial ribosomal protein L47)	1	-1.4	-6.89
23	MRPL47 (mitochondrial ribosomal protein L47)	2	-0.0769	2.43
24	MRPL47 (mitochondrial ribosomal protein L47)	3	-0.328	0.656
25	RPS2P20 (ribosomal protein S2 pseudogene 20)	1	3.48	27.5
26	RPS2P20 (ribosomal protein S2 pseudogene 20)	2	14.2 (active)	103
27	RPS2P20 (ribosomal protein S2 pseudogene 20)	3	-0.636	-1.51
28	ACTR8 (actin related protein 8)	1	-0.904	-3.39
29	ACTR8 (actin related protein 8)	2	-0.216	1.45
30	ACTR8 (actin related protein 8)	3	-0.273	1.04
31	PLAAT2 (phospholipase A and acyltransferase 2)	1	-0.853	-3.04
32	PLAAT2 (phospholipase A and acyltransferase 2)	2	2.12	17.9
33	PLAAT2 (phospholipase A and acyltransferase 2)	3	-0.0698	2.48
34	CLK4 (CDC like kinase 4)	1	0.418	5.91
35	CLK4 (CDC like kinase 4)	2	0.942	9.59
36	CLK4 (CDC like kinase 4)	3	-0.0721	2.46
37	KRTAP12-2 (keratin associated protein 12-2)	1	2.24	18.7
38	KRTAP12-2 (keratin associated protein 12-2)	2	1.12	10.9
39	KRTAP12-2 (keratin associated protein 12-2)	3	-0.394	0.198
40	INIP (INTS3 and NABP interacting protein)	1	-1.02	-4.24
41	INIP (INTS3 and NABP interacting protein)	2	2.8	22.7
42	INIP (INTS3 and NABP interacting protein)	3	-0.307	0.804
43	POLR1A (RNA polymerase I subunit A)	1	2.91	23.4
44	POLR1A (RNA polymerase I subunit A)	2	2.52	20.7
45	POLR1A (RNA polymerase I subunit A)	3	-0.529	-0.757
46	BLCAP (BLCAP apoptosis inducing factor)	1	-1.06	-4.52
47	BLCAP (BLCAP apoptosis inducing factor)	2	1.35	12.4
48	BLCAP (BLCAP apoptosis inducing factor)	3	1.53	13.7
49	TMEM14A (transmembrane protein 14A)	1	2.76	22.4
50	TMEM14A (transmembrane protein 14A)	2	1.1	10.7
51	TMEM14A (transmembrane protein 14A)	3	0.345	5.4
52	NUDT3 (nudix hydrolase 3)	1	-1.29	-6.11
53	NUDT3 (nudix hydrolase 3)	2	-0.401	0.143
54	NUDT3 (nudix hydrolase 3)	3	-0.299	0.86
55	RCC1 (regulator of chromosome condensation 1)	1	-1.16	-5.22
56	RCC1 (regulator of chromosome condensation 1)	2	1.25	11.8
57	RCC1 (regulator of chromosome condensation 1)	3	-0.58	-1.11
58	MED1 (mediator complex subunit 1)	1	0.347	5.41
59	MED1 (mediator complex subunit 1)	2	3.31	26.3
60	MED1 (mediator complex subunit 1)	3	-0.481	-0.417
61	WNK4 (WNK lysine deficient protein kinase 4)	1	1.77	15.5
62	WNK4 (WNK lysine deficient protein kinase 4)	2	0.26	4.8
63	WNK4 (WNK lysine deficient protein kinase 4)	3	0.529	6.69
64	CFAP107 (cilia and flagella associated protein 107)	1	0.679	7.74
65	CFAP107 (cilia and flagella associated protein 107)	2	1.66	14.6
66	CFAP107 (cilia and flagella associated protein 107)	3	-0.291	0.923
67	RPS27L (ribosomal protein S27 like)	1	-0.336	0.604
68	RPS27L (ribosomal protein S27 like)	2	1.23	11.6
69	RPS27L (ribosomal protein S27 like)	3	1.12	10.9
70	NIPAL1 (NIPA like domain containing 1)	1	-0.203	1.54
71	NIPAL1 (NIPA like domain containing 1)	2	4.45	34.3
72	NIPAL1 (NIPA like domain containing 1)	3	-0.759	-2.37
73	PJA2 (praja ring finger ubiquitin ligase 2)	1	1.4	12.8
74	PJA2 (praja ring finger ubiquitin ligase 2)	2	-0.778	-2.51
75	PJA2 (praja ring finger ubiquitin ligase 2)	3	0.67	7.68
76	ETF1 (eukaryotic translation termination factor 1)	1	2.38	19.7
77	ETF1 (eukaryotic translation termination factor 1)	2	0.848	8.94
78	ETF1 (eukaryotic translation termination factor 1)	3	-0.0269	2.78
79	TDG (thymine DNA glycosylase)	1	-0.0757	2.43
80	TDG (thymine DNA glycosylase)	2	-0.904	-3.39
81	TDG (thymine DNA glycosylase)	3	8.19 (active)	60.6
82	CTU1 (cytosolic thiouridylase subunit 1)	1	3.21	25.6
83	CTU1 (cytosolic thiouridylase subunit 1)	2	0.35	5.43
84	CTU1 (cytosolic thiouridylase subunit 1)	3	-0.358	0.447
85	NAA20 (N-alpha-acetyltransferase 20, NatB catalytic subunit)	1	4.91	37.5
86	NAA20 (N-alpha-acetyltransferase 20, NatB catalytic subunit)	2	-0.831	-2.88
87	NAA20 (N-alpha-acetyltransferase 20, NatB catalytic subunit)	3	0.0752	3.5
